Molecular target: MuA transposase (UniProt P07636)
Experiment: activity assay
Details: MuA transposome formation 30 C 2 h; transposition into pUC19 confirmed by sequencing with MuA-Tn5 TSC; 25 mM Tris pH 8.0, 10 mM MgCl2, 110 mM NaCl; purified recombinant protein

Protein sequences, listed by entry. Tags and fused reporters are not part of them. Lines headed by an entry give the natural chain unless they say otherwise; changes in a name come on top.
UniProt P07636: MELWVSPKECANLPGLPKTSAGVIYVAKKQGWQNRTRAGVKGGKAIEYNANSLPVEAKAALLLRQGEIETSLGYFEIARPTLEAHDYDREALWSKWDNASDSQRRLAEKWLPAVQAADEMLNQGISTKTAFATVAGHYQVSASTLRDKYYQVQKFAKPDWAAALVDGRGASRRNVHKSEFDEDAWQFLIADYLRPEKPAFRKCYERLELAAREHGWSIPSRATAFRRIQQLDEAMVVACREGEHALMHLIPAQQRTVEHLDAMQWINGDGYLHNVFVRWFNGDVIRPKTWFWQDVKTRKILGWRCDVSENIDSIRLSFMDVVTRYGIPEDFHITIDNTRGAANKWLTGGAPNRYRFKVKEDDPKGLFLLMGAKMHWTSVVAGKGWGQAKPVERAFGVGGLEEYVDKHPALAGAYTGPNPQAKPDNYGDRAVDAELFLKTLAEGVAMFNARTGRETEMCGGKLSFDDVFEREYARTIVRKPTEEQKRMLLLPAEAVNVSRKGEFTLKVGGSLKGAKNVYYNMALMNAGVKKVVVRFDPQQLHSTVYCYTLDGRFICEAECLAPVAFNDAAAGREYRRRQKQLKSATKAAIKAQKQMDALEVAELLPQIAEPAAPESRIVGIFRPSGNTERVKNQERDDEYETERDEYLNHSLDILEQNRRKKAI

GATCTGAAGCGGCGCACGAAAAACGCGAAAGCGTTTCACGATAAATGCGAAAACAAAACCATCGCCGAGATTTGCCCGTAGATTTCAGTGCCGGTTAACTCCTCGAGCAATTCCGCGCGTTCTTTGGGTTTGGCATTCAGGAAGGCAGCAAATTAGATGTGTATAAGAGACAG (double strand)
activity on this sequence: active

Reference: patent US20190169602
